Laboratory results reported in patent US20190388508A1.

Amino acid sequences for entries named in this document (tags omitted). Residues count along the entry.
UniProt P20333, residues 288-461: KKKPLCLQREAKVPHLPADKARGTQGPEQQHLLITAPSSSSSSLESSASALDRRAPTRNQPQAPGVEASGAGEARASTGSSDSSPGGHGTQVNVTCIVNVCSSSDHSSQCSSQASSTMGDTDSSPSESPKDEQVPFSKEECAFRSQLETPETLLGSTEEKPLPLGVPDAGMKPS

Target: GST-TNFR2ICD (UniProt P20333)
Assay: GST-TNFR2ICD pull-down from PGRN-treated human C28I2 chondrocytes, mass spectrometry

binding	Binder
binds	TRAF1 (protein, human, UniProt Q13077 1-416, looked up) MASSSGSSPRPAPDENEFPFGCPPTVCQDPKEPRALCCAGCLSENPRNGEDQICPKCRGEDLQSISPGSRLRTQEKAHPEVAEAGIGCPFAGVGCSFKGSPQSVQEHEVTSQTSHLNLLLGFMKQWKARLGCGLESGPMALEQNLSDLQLQAAVEVAGDLEVDCYRAPCSESQEELALQHFMKEKLLAELEGKLRVFENIVAVLNKEVEASHLALATSIHQSQLDRERILSLEQRVVELQQTLAQKDQALGKLEQSLRLMEEASFDGTFLWKITNVTRRCHESACGRTVSLFSPAFYTAKYGYKLCLRLYLNGDGTGKRTHLSLFIVIMRGEYDALLPWPFRNKVTFMLLDQNNREHAIDAFRPDLSSASFQRPQSETNVASGCPLFFPLSKLQSPKHAYVKDDTMFLKCIVETST
binds	TRAF2 (protein, human, UniProt Q12933 2-501, looked up) AAASVTPPGSLELLQPGFSKTLLGTKLEAKYLCSACRNVLRRPFQAQCGHRYCSFCLASILSSGPQNCAACVHEGIYEEGISILESSSAFPDNAARREVESLPAVCPSDGCTWKGTLKEYESCHEGRCPLMLTECPACKGLVRLGEKERHLEHECPERSLSCRHCRAPCCGADVKAHHEVCPKFPLTCDGCGKKKIPREKFQDHVKTCGKCRVPCRFHAIGCLETVEGEKQQEHEVQWLREHLAMLLSSVLEAKPLLGDQSHAGSELLQRCESLEKKTATFENIVCVLNREVERVAMTAEACSRQHRLDQDKIEALSSKVQQLERSIGLKDLAMADLEQKVLEMEASTYDGVFIWKISDFARKRQEAVAGRIPAIFSPAFYTSRYGYKMCLRIYLNGDGTGRGTHLSLFFVVMKGPNDALLRWPFNQKVTLMLLDQNNREHVIDAFRPDVTSSSFQRPVNDMNIASGCPLFCPVSKMEAKNSYVRDDAIFIKAIVDLTGL

No constants are given. Whether binding was seen depends on the method and setting. Binding seen in cells or lysates may run through a third protein. These calls come from enrichment with a bait or labelling near it, and not all partners need be listed.
